# From the supplement of paper PMC12067093, “Discovery and optimisation of a covalent ligand for TRIM25 and its application to targeted protein ubiquitination” (Chemical Science, 2025)
# By UniProt entry, the sequences of proteins in these tests, tags left out. Where a name states a change or a piece, a line headed by the entry shows the natural chain unless it says otherwise.
# UniProt Q9UNE7: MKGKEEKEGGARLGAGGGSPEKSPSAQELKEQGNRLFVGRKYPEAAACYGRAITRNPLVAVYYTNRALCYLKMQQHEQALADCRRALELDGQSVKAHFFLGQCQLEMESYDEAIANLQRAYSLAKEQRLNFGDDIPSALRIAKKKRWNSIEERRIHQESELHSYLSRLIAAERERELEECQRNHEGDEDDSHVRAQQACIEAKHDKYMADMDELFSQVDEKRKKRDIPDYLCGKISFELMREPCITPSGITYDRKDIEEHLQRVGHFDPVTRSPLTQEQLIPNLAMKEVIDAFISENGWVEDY
# UniProt P40763, whole entry, looked up: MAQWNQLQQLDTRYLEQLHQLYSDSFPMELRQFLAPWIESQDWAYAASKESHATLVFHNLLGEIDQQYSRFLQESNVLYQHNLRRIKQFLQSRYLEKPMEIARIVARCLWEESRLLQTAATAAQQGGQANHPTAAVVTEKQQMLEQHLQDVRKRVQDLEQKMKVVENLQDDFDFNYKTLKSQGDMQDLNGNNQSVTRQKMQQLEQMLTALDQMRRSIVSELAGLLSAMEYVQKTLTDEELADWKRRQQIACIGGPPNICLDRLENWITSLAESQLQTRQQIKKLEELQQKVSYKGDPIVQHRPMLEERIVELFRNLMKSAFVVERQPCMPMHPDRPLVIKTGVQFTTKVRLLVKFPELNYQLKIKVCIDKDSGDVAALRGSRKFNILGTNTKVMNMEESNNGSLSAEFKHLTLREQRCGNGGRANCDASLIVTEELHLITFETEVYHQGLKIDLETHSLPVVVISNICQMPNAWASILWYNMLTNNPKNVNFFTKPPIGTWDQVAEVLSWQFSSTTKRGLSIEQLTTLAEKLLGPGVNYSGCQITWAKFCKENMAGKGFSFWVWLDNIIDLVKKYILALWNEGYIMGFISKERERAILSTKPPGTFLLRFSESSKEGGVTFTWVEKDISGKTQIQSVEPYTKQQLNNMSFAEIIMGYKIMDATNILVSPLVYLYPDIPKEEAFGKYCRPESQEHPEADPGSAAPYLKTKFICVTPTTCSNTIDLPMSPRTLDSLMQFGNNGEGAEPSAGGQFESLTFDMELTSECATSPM
# UniProt O00186: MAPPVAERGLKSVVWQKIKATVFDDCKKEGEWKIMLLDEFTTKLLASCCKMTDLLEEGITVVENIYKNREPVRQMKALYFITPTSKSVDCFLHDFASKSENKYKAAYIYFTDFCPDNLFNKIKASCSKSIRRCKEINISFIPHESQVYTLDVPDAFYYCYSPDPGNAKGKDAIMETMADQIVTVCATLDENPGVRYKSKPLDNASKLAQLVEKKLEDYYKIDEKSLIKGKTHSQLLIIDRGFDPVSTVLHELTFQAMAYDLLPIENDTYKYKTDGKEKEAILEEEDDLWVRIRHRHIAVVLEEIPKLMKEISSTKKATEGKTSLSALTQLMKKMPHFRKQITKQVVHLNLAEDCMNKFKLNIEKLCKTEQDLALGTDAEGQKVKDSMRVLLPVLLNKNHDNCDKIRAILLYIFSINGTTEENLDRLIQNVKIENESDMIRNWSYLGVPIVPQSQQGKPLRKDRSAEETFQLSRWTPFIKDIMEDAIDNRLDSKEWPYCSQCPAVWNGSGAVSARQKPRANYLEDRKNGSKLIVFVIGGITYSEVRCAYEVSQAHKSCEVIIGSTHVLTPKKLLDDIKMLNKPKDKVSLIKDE
# UniProt O95210: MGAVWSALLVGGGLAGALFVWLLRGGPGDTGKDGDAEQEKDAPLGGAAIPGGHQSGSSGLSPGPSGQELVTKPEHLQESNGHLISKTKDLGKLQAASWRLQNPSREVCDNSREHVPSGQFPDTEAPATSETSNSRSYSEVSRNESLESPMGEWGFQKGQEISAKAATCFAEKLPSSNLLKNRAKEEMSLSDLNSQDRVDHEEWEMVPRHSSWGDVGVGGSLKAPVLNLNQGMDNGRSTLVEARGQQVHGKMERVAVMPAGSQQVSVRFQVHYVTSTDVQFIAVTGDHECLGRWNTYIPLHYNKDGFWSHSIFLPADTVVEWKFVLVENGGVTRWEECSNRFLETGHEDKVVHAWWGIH
# UniProt Q8IYB8: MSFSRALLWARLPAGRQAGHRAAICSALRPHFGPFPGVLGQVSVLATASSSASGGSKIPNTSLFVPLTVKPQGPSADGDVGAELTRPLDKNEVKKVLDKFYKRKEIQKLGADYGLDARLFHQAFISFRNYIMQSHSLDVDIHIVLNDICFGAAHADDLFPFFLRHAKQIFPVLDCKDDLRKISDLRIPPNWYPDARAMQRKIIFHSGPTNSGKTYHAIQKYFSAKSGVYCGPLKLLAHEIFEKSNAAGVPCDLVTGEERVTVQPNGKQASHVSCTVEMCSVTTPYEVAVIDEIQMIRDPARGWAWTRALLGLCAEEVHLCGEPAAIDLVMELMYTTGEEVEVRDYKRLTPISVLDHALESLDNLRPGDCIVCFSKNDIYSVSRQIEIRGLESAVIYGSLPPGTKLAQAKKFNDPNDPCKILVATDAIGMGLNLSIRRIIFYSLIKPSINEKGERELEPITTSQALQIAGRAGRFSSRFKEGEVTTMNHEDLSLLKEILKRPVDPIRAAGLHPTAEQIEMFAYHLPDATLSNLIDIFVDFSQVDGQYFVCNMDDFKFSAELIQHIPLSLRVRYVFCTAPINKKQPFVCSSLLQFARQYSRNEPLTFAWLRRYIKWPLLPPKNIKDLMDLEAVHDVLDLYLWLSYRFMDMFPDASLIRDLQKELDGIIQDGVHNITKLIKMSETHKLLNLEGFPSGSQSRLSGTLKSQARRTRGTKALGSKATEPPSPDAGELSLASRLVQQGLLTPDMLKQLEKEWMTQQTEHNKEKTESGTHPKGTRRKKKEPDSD
# UniProt Q8IX01: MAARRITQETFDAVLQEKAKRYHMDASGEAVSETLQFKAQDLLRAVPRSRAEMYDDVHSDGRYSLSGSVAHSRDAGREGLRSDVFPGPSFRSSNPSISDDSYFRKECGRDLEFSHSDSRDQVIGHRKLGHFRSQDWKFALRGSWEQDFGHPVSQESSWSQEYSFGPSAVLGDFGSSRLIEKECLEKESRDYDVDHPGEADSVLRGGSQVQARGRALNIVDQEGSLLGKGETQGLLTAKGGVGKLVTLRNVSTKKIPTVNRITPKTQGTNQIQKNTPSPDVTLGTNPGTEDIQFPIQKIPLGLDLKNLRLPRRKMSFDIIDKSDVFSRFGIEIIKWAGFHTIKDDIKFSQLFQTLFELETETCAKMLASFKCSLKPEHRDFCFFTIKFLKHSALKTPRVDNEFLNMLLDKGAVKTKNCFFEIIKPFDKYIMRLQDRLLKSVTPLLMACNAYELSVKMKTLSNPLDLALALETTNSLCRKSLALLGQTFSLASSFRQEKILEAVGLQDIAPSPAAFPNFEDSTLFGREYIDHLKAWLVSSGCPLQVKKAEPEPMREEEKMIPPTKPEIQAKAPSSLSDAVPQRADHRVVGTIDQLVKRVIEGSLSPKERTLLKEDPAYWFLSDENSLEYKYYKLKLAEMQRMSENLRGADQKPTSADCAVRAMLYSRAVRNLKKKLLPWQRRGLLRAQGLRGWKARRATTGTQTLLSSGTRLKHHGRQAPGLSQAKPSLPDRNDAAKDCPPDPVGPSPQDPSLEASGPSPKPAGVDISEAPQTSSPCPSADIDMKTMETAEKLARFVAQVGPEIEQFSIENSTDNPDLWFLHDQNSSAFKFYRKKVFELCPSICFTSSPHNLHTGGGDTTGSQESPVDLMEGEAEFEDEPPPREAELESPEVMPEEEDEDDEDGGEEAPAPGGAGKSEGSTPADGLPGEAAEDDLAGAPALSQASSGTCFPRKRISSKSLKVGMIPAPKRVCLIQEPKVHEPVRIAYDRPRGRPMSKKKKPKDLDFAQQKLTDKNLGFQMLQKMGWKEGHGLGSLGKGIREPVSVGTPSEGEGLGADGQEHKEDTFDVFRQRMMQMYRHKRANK
# UniProt Q9P289: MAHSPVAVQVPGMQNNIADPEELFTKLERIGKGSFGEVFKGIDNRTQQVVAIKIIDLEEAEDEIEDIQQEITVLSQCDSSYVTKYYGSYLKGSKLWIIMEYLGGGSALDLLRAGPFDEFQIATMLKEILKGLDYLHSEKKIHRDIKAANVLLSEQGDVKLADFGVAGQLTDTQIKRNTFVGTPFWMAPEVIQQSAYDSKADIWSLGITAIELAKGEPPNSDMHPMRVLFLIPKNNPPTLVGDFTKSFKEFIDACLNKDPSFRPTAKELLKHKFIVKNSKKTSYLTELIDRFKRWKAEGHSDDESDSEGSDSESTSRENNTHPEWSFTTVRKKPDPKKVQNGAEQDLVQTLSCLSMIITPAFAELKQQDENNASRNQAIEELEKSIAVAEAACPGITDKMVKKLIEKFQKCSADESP
# UniProt P52630: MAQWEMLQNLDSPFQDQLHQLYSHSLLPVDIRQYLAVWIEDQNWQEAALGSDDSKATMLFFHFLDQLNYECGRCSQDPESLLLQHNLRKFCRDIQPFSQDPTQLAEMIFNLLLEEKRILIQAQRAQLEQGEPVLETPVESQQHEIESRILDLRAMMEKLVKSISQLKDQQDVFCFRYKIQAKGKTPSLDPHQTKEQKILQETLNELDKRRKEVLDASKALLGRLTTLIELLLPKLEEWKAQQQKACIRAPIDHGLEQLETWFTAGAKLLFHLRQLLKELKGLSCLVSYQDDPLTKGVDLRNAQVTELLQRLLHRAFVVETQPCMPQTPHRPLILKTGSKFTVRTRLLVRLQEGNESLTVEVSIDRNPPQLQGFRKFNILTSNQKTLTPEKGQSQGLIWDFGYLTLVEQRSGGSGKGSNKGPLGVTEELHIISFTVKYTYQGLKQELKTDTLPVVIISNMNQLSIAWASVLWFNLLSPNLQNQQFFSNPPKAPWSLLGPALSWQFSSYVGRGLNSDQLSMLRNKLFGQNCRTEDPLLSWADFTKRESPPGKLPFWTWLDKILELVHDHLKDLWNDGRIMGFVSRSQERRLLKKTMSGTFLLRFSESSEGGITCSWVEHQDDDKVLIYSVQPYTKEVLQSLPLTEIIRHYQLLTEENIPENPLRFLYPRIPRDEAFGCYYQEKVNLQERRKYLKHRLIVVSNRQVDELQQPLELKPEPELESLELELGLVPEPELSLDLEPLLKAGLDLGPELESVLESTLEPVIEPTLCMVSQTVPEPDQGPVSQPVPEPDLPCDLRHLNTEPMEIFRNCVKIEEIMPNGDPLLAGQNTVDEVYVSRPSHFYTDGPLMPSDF
# UniProt Q7RTN6: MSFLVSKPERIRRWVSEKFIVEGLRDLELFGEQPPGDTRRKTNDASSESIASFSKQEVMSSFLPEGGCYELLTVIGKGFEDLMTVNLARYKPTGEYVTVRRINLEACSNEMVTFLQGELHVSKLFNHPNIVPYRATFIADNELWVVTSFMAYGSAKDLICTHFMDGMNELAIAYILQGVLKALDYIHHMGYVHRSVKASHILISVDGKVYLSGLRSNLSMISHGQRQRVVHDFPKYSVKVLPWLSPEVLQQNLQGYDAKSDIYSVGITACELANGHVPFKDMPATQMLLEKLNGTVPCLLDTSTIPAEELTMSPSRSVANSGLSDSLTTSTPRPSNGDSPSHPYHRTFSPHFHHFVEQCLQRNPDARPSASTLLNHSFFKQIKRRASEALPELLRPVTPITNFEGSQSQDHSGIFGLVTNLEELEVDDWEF
# UniProt Q9BXP5: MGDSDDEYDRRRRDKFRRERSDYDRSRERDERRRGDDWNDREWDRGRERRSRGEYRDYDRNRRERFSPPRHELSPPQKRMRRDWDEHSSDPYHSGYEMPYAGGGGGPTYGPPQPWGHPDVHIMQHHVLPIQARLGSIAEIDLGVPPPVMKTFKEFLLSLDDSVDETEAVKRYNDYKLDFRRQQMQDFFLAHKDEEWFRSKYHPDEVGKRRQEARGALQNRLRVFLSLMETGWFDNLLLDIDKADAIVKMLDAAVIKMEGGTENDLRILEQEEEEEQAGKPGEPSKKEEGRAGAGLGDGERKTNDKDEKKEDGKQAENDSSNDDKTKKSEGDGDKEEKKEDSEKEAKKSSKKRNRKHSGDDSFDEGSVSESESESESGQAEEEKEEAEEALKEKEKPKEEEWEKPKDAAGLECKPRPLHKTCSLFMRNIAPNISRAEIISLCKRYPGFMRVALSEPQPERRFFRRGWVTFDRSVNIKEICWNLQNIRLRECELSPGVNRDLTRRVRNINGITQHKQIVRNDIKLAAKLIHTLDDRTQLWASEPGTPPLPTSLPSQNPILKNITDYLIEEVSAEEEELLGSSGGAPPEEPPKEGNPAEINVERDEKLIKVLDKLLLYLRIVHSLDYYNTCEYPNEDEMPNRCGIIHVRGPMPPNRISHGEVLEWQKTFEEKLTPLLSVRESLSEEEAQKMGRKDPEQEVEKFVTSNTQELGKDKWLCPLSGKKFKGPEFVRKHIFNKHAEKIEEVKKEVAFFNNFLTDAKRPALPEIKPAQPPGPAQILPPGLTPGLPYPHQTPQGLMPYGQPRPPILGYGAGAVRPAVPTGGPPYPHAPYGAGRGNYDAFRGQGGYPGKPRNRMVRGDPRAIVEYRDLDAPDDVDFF
# UniProt P63165, whole entry: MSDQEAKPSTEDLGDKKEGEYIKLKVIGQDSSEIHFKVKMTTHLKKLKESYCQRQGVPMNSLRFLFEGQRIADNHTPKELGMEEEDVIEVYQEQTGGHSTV
# This is one part of the list.
# Compound: Cc1cc(ccc1-c1ccccc1)C(=O)N1CCCN(CC1)C(=O)CCl [compound 10]
# Assay: probe-labelled cysteine peptide fold change vs DMSO (competition) (log2 fold change); higher = less target engagement (more negative = stronger competition)
# Conditions: 10 µM; THP-1; incubation time: 4 h
# 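Further: competitive profiling in live THP-1 cells: cysteine peptides tagged with an iodoacetamide desthiobiotin (IA-DTB) probe, intensity after compound treatment relative to DMSO-treated cells.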
row,Target,probe-labelled cysteine peptide fold change
1,STUB1_Q9UNE7_83_MQQHEQALADCRR (UniProt Q9UNE7),0.121
2,STAT3_P40763_542_LLGPGVNYSGCQITWAK (UniProt P40763),-0.111
3,STXBP3_O00186_90_SVDCFLHDFASK (UniProt O00186),-0.112
4,STBD1_O95210_337_WEECSNR (UniProt O95210),0.153
5,SRSF7_Q16629_106+109_CYECGEK (UniProt Q16629),0.091
6,SUPV3L1_Q8IYB8_587_KQPFVCSSLLQFAR (UniProt Q8IYB8),-0.025
7,SSU72_Q9NP77_111_DLFDLILTCEER (UniProt Q9NP77),0.00247
8,SUGP2_Q8IX01_970_VCLIQEPK (UniProt Q8IX01),-0.0275
9,STK26_Q9P289_392_SIAVAEAACPGITDK (UniProt Q9P289),-0.0565
10,SSB_P05455_245_FSGDLDDQTCREDLHILFSNHGEIK (UniProt P05455),0.0581
11,STAT2_P52630_74_CSQDPESLLLQHNLR (UniProt P52630),0.118
12,SUGP2_Q8IX01_656_GADQKPTSADCAVR (UniProt Q8IX01),-0.106
13,STT3A_P46977_637_EGSPVLLNCLMYK (UniProt P46977),0.013
14,STRADA_Q7RTN6_107_INLEACSNEMVTFLQGELHVSK (UniProt Q7RTN6),0.391
15,SRRT_Q9BXP5_715_WLCPLSGKK (UniProt Q9BXP5),0.0525
16,SYK_P43405_89_THASPADLCHYHSQESDGLVCLLK (UniProt P43405),0.0513
17,SUMO1_P63165_52_ESYCQR (UniProt P63165),-0.143

# Some values from the results shown.
# probe-labelled cysteine peptide fold change, SYK_P43405_89_THASPADLCHYHSQESDGLVCLLK (UniProt P43405) reads 0.0513
# probe-labelled cysteine peptide fold change, STUB1_Q9UNE7_83_MQQHEQALADCRR (UniProt Q9UNE7) reads 0.121
